Experimental data taken from patent US20050043235A1.
Results are given in words; binding and its absence hold for the method and conditions named. Some results given as binding are weak or reduced against the parent protein; the word gives no strength.

Protein sequences, listed by entry. Tags and fused reporters are not part of them. Residues count along the entry.
UniProt P35968, residues 20-764: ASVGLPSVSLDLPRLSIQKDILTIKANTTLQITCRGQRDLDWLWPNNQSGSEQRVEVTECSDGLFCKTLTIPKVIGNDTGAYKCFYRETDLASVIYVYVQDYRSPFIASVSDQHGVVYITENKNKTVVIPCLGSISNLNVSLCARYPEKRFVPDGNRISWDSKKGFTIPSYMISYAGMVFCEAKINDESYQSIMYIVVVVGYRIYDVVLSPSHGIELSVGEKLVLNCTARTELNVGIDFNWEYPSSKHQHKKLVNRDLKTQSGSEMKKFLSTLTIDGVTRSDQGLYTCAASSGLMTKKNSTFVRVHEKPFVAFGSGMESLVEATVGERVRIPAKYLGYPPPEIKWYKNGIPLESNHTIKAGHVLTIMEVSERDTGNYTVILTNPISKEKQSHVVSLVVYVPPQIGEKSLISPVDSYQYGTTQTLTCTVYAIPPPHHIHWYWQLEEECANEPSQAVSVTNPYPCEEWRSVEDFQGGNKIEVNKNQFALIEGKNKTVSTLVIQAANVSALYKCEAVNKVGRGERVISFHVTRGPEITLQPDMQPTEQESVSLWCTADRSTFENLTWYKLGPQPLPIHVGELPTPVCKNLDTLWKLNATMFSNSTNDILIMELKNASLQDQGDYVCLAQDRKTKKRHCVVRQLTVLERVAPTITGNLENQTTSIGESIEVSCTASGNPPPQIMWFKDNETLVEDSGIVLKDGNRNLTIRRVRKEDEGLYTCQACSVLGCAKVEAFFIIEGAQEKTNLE
UniProt P35916, residues 25-329: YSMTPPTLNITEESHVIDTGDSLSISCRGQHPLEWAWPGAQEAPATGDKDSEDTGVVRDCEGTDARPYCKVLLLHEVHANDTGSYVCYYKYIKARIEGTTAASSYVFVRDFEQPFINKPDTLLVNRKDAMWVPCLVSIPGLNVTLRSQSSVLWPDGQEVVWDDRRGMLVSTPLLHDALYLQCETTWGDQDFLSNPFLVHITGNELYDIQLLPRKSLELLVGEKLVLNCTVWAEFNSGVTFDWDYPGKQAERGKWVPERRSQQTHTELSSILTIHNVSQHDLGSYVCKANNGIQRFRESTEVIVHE

What was measured:
[1] = biological target: soluble VEGFR-2-Ig fusion protein (UniProt P35968); test: precipitation of 35S-labelled protein from 293T medium with VEGFR-2-Ig, SDS-PAGE (FIG. 5B)
neuropilin-1-Ig [2] = biological target: T1, neuropilin-1-Ig (UniProt O14786); test: precipitation of 35S-labelled protein from 293T medium with neuropilin-1-Ig, SDS-PAGE (FIG. 5A)
T1 sequence (looked up): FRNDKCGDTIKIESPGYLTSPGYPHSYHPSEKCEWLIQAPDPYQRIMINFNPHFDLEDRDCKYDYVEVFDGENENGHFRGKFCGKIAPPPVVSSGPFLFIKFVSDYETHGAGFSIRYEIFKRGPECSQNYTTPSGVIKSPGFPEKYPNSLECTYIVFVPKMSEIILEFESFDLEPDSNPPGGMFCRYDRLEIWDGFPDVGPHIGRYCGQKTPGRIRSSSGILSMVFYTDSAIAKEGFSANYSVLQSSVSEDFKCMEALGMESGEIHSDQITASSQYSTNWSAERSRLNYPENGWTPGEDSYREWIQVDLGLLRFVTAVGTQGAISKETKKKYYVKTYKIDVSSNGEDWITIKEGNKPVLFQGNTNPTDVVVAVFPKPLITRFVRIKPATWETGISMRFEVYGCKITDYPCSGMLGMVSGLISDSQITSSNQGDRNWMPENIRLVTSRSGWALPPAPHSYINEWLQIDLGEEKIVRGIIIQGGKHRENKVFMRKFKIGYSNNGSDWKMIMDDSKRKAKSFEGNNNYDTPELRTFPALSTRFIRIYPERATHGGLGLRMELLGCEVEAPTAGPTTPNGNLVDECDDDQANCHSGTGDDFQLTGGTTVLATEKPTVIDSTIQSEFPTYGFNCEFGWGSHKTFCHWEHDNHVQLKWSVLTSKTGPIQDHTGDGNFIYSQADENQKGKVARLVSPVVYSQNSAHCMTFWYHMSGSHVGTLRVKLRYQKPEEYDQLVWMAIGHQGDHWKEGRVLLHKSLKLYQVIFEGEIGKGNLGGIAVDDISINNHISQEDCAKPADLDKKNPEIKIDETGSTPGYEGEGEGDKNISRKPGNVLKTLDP

neuropilin-2-Ig = biological target: T2, neuropilin-2-Ig (UniProt O60462); test: precipitation of 35S-labelled protein from 293T medium with neuropilin-2-Ig, SDS-PAGE (FIG. 5A)
T2 sequence (looked up): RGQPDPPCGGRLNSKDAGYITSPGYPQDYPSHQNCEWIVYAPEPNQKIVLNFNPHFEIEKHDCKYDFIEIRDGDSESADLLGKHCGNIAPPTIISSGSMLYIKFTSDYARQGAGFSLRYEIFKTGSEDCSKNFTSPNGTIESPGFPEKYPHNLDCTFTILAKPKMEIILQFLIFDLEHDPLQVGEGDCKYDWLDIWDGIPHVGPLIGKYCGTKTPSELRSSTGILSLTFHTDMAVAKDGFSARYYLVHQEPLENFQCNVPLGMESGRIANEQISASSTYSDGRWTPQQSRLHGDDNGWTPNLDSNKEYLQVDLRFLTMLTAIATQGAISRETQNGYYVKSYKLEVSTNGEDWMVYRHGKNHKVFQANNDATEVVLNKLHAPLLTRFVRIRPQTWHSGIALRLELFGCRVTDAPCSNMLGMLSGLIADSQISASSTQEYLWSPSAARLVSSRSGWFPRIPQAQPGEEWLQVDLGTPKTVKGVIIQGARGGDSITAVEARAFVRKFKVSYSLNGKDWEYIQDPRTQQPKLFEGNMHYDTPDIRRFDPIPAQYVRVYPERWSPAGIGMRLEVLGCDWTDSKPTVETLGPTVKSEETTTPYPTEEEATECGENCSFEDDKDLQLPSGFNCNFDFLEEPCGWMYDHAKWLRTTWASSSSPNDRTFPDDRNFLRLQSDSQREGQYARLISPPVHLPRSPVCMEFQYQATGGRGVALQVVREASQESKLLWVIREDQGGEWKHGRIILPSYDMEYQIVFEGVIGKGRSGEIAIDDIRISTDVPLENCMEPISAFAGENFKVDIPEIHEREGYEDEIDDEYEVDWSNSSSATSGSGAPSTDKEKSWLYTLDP

[3] = biological target: soluble VEGFR-3-Ig fusion protein (UniProt P35916); test: precipitation of 35S-labelled protein from 293T medium with VEGFR-3-Ig, SDS-PAGE (FIG. 5B)
[4] = biological target: soluble VEGFR-2-Ig fusion protein (UniProt P35968); test: receptor binding profile (precipitation with receptor-Ig), summary of Example 12
[5] = biological target: soluble VEGFR-3-Ig fusion protein (UniProt P35916); test: as above
neuropilin-1-Ig [6] = biological target: T1, neuropilin-1-Ig; test: as above

Measured: binding

B1: CA65, chimeric protein of the VEGF homology domain of VEGF-C and VEGF exon 7-8 encoded sequences (ligand)
chain: TEETIKFAAAHYNTEILKSIDNEWRKTQCMPREVCIDVGKEFGVATNTFFKPPCVSVYRCGGCCNSEGLQCMNTSTSYLSKTLFEITVPLSQGPKPVTISFANHTSCRCMSKLDVYRQVHSIIRRPCGPCSERRKHLFVQDPQTCKCSCKNTDSRCKARQLELNERTCRCDKPRR
binds: all assays above

B2: CA89, chimeric protein of the VEGF homology domain of VEGF-C and VEGF exon 6-8 encoded sequences (ligand)
chain: TEETIKFAAAHYNTEILKSIDNEWRKTQCMPREVCIDVGKEFGVATNTFFKPPCVSVYRCGGCCNSEGLQCMNTSTSYLSKTLFEITVPLSQGPKPVTISFANHTSCRCMSKLDVYRQVHSIIRRKSVRGKGKGQKRKRKKSRYKSWSVPCGPCSERRKHLFVQDPQTCKCSCKNTDSRCKARQLELNERTCRCDKPRR
binds: all assays above
